Experimental data: US20250109212A1
Positions count from the first letter of the chain named. No constants are given. Whether binding was seen depends on the method and setting. Some binding calls cover weakened binding; strength is not graded here.

B1: BSI038×S-004 (bispecific antibody, human IgG2, kappa)
heavy: EEELQVIQPDKSVSVAAGESAILHCTITSLIPVGPIQWFRGAGPARELIYNQREGHFPRVTTVSETTKRENMDFSISISNITPADAGTYYCVKFRKGSPDTEFKSGAGTELSVRAKPSAPVVSGPAARATPGGGGSGGGGSEVQLVESGGGLVKPGGSLRLSCAASGFTFSNYGISWVRQAPGKGLEWVSSISSGGDNTYYPDNVKGRFTISRDNAKNSLYLQMNSLRAEDTAVYYCARAGEKAMDYWGQGTLVTVSSASTKGPSVFPLAPCSRSTSESTAALGCLVKDYFPEPVTVSWNSGALTSGVHTFPAVLQSSGLYSLSSVVTVPSSNFGTQTYTCNVDHKPSNTKVDKTVERKCCVECPPCPAPPVAGPSVFLFPPKPKDTLMISRTPEVTCVVVDVSHEDPEVQFNWYVDGVEVHNAKTKPREEQFNSTFRVVSVLTVVHQDWLNGKEYKCKVSNKGLPAPIEKTISKTKGQPREPQVYTLPPSREEMTKNQVSLTCLVKGFYPSDIAVEWESNGQPENNYKTTPPMLDSDGSFFLYSKLTVDKSRWQQGNVFSCSVMHEALHNHYTQKSLSLSPGK
light: EIVLTQSPATLSLSPGERATLSCRASQTINNNLHWYQQKPGQAPRLLIKYASQSISGIPARFSGSGSGTDFTLTISSLEPEDFAVYFCQQFSSWPLTFGGGTKVEIKRTVAAPSVFIFPPSDEQLKSGTASVVCLLNNFYPREAKVQWKVDNALQSGNSQESVTEQDSKDSTYSLSSTLTLSKADYEKHKVYACEVTHQGLSSPVTKSFNRGEC
B2: BSI038×S-005 (bispecific antibody, human IgG2, kappa)
heavy: B1 heavy with K68R, F103V
light: B1 light

Biological target: cynomolgus CD47-his protein (Cat #: CD7-C52H1, Acro biosystems) (cynomolgus)
Test: SPR (Biacore)

Binder | binding
B1 | binds
B2 | binds
